Values joined by “and” are separate entries in the source; they are usually repeats but may differ in a detail not shown here. Identical values can stand only once. The list shows a part of the results. Repeats in this data set agree poorly, so a single value says little.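 HEK293T cells were given each compound shortly before transfection with a reporter in which red mCherry is followed by the SARS-CoV-2 frameshift element and then GFP in the −1 frame, so GFP appears only after frameshifting.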
What was measured:
[1] = test system: SARS-CoV-2 -1 PRF reporter mCherry-FSE-GFP(-1); experiment: mCherry (red) intensity as percent of control; higher = higher upstream reporter expression; conditions: 10 µM; 24 h; HEK293T
[2] = test system: SARS-CoV-2 -1 PRF reporter mCherry-FSE-GFP(-1); experiment: percent effect, decrease of GFP/mCherry ratio (-1 PRF reporter) relative to controls; higher = stronger frameshift inhibition; conditions: 10 µM; 24 h; HEK293T

Row | Compound | mCherry [1] | percent effect [2]
1 | C[N+](C)(C)NCCC(=O)[O-] [meldonium] | 65.5% | 1.78%
2 | O=C1O[C@H]([C@@H](O)CO)C(O)=C1O [ascorbic acid] | 83.3% | -10.2%
3 | COc1cc(C=CC(=O)N2CCCCCCC2)cc(OC)c1OC | 105% | -1.82%
4 | Cc1c(NC(C)C)c(=O)n(-c2ccccc2)n1C [ramifenazone] | 47.2% | -1.6%
5 | CNC(=S)NCCSCc1[nH]cnc1C [metiamide] | 100% | -4.48%
6 | CO[C@H]1/C=C/O[C@@]2(C)Oc3c(C)c(O)c4c(O)c(c5c(nc6cc(C)ccn65)c4c3C2=O)NC(=O)/C(C)=C\C=C\[C@H](C)[C@H](O)[C@@H](C)[C@@H](O)[C@@H](C)[C@H](OC(C)=O)[C@@H]1C [Xifaxan] | 112% | -3.75%
7 | CC(C)Cc1ccc([C@H](C)C(=O)O)cc1 [dexibuprofen] | 109% | 0.663%
8 | NC(CO)C(=O)NNCc1ccc(O)c(O)c1O (stereo unspecified) [benserazide] | 82% and 72% | -2.62% and 2.14%
9 | C=CC1=C(C(=O)O)N2C(=O)[C@@H](NC(=O)/C(=N\OCC(=O)O)c3csc(N)n3)[C@H]2SC1 [Suprax] | 109% | -5.03%
10 | CO/N=C/C1=CCCN(C)C1 [milameline] | 122% | -3.1%
11 | C=CCN1C(=O)C(CC(C)C)NC1=S (stereo unspecified) [albutoin] | 117% | -11.7%
12 | CCN(CC)C(=O)[C@@]1(c2ccccc2)C[C@H]1CN [Levomilnacipran] | 97.8% | -2.3%
13 | O=C1CCc2cc(OCCCCc3nnnn3C3CCCCC3)ccc2N1 [cilostazol] | 109% | 0.7%

Reference: the supplement of paper PMC8256030
